Source: US20170333532A1, “ADP'ASE-ENHANCED APYRASE THERAPY FOR WOUNDS, MICROBIAL INFECTION, SEPSIS, AND HETEROTOPIC OSSIFICATION” (APT THERAPEUTICS, INC, priority 2014, published 2017)
Some results were stated once for a whole list of compounds, not compound by compound.

Assays:
A. baumannii ATCC 17978 = test: Mouse model for wound infection and healing (burn), colistin-sensitive A. baumannii ATCC 17978 on skin; assay type: in vivo; details: 24 hours after a burn, colistin 0.2 μg/ml
A. baumannii ATCC DMCI = test: Mouse model for wound infection and healing (burn), colistin-resistant A. baumannii ATCC DMCI on skin over 7 days; assay type: in vivo; details: throughout the test period over 7 days, single agents, colistin 4 μg/ml

colistin sulfate salt
A. baumannii detected on skin (A. baumannii ATCC 17978): 10^2 to 10^5 CFU/g of skin | A. baumannii detected on skin (A. baumannii ATCC DMCI): 10^5 to 10^8 CFU/g of skin
